Patent US20140328900A1
These are yes or no findings as the source states them, for the method shown. Some binding calls cover weakened binding; strength is not graded here.

Molecular target: T1, G protein-coupled receptor RXFP1 (UniProt Q9HBX9)
T1 sequence (looked up): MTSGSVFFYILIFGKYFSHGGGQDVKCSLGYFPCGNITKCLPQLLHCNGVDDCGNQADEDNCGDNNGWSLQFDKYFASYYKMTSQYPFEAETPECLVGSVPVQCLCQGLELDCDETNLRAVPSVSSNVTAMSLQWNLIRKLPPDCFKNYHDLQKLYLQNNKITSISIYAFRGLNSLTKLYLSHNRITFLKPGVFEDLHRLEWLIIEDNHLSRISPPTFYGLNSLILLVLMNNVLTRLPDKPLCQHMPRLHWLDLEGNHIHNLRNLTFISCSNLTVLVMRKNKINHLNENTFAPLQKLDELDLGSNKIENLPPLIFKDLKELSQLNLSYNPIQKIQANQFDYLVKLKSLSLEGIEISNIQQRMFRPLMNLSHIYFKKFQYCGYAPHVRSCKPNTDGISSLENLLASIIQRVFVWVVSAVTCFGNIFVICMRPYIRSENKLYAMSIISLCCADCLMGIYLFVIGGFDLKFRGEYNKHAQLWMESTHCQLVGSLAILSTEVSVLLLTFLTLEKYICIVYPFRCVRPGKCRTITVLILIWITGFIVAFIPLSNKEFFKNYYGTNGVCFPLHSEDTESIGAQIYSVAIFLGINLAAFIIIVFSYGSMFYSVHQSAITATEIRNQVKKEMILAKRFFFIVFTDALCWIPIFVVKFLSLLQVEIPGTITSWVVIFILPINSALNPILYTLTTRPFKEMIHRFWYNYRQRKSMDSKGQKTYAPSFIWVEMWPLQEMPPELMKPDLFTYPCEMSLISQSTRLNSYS
Assay: competition binding on HEK-293T cells expressing RXFP1; displacement of europium-labeled relaxin-2

binding: binds
B1: synthetic human relaxin-2 (ligand)
chain 1: ELYSALANKCCHVGCTKRSLARFC
chain 2: DSWMEEVIKLCGRELVRAQIAICGMSTWS
modifications: pyroglutamic acid (pGlu) at position 1 of the A chain
